PubChem BioAssay AID1259405, NCATS – 2018
Screen: 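Silenced genes that increase secreted GFP made by CHO cells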 (primary screen). Cell system: Chinese hamster CHO-K1 ovary cells with stable secreted eGFP expression. Knock-down reagent: single siRNA against mouse genes, 0.8 pmol siRNA per well (2 µl of 400 nM stock). Time to read-out: 3 days. Measurement: 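Per-well intracellular GFP measured by laser scanning cytometry, plus viability from ATP luminescence, each relative to plate median of non-targeting control wells, in %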. Reading the numbers: GFP, % of control: higher = more GFP per well, higher productivity; viability (ATP), % of control: higher = more viable cells (more ATP). Rule for the call: 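a knock-down is called active if GFP reaches 120% or more of non-targeting control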.
The whole screen tested about 50,000 reagents; below is a part drawn at random. Of all reagents, about 4,000 (8%) are marked active. 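Mouse siRNA library applied to hamster cells; one well for each siRNA.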 Unmarked entries are inactive. The numbers tell different reagents against one gene apart. Reagent sequences are not shown.

Pabpc1 (GeneID 18458) #1
- GFP, % of control: 71.6
- viability (ATP), % of control: 61.2

Pabpc1 (GeneID 18458) #2
- GFP, % of control: 31.9
- viability (ATP), % of control: 37.1

Morf4l2 (GeneID 56397) #1
- GFP, % of control: 71.9
- viability (ATP), % of control: 71.2

Morf4l2 (GeneID 56397) #2
- GFP, % of control: 73.2
- viability (ATP), % of control: 80.5

Morf4l2 (GeneID 56397) #3
- GFP, % of control: 57.9
- viability (ATP), % of control: 58.1

Praf2 (GeneID 54637) #1
- GFP, % of control: 96.7
- viability (ATP), % of control: 75.7

Praf2 (GeneID 54637) #2
- GFP, % of control: 98.3
- viability (ATP), % of control: 58.9

Praf2 (GeneID 54637) #3
- GFP, % of control: 55
- viability (ATP), % of control: 68.6

Hcrtr1 (GeneID 230777) #1
- GFP, % of control: 50.5
- viability (ATP), % of control: 72.7

Hcrtr1 (GeneID 230777) #2
- GFP, % of control: 52.6
- viability (ATP), % of control: 68.4

Hcrtr1 (GeneID 230777) #3
- GFP, % of control: 63.2
- viability (ATP), % of control: 67.4

Ep400 (GeneID 75560) #1
- GFP, % of control: 149 (active)
- viability (ATP), % of control: 121

Ep400 (GeneID 75560) #2
- GFP, % of control: 112
- viability (ATP), % of control: 110

Ep400 (GeneID 75560) #3
- GFP, % of control: 49
- viability (ATP), % of control: 28.9

Sord (GeneID 20322) #1
- GFP, % of control: 54
- viability (ATP), % of control: 60.1

Sord (GeneID 20322) #2
- GFP, % of control: 35.4
- viability (ATP), % of control: 58.2

Sord (GeneID 20322) #3
- GFP, % of control: 72.1
- viability (ATP), % of control: 74.6

3 entries from above, arranged by “viability (ATP), % of control”, descending:
Sord (GeneID 20322) #1
- GFP, % of control: 54
- viability (ATP), % of control: 60.1

Sord (GeneID 20322) #2
- GFP, % of control: 35.4
- viability (ATP), % of control: 58.2

Ep400 (GeneID 75560) #3
- GFP, % of control: 49
- viability (ATP), % of control: 28.9
